Some entries share one result that the patent states for a list of compounds.
Assay: Water content upon storage at high relative humidity (hygroscopicity)
Type: physicochemical
Conditions: storage at 95% relative humidity (RH)

In the case of `CC(C)(C=C(C#N)C(=O)N1CCC[C@@H](n2nc(-c3ccc(Oc4ccccc4)cc3F)c3c(N)ncnc32)C1)N1CCN(C2COC2)CC1` [Crystalline Form B, (R)-2-[3-[4-amino-3-(2-fluoro-4-phenoxy-phenyl)pyrazolo[3,4-d]pyrimidin-1-yl]piperidine-1-carbonyl]-4-methyl-4-[4-(oxetan-3-yl)piperazin-1-yl]pent-2-enenitrile], the “water content upon storage” value is reported as “less than 1.3%”.
